Test results published in publication PMC9925730, “Controlled sequential in situ self-assembly and disassembly of a fluorogenic cisplatin prodrug for cancer theranostics” (Nature Communications, 2023).
Values joined by “and” are separate entries in the source; they are usually repeats but may differ in a detail not shown here. Equal entries are not always repeated. Further values from the same series stand in other lists.

Amino acid sequences for entries named in this document (tags omitted). Residues count along the entry.
UniProt P19111, 20-533: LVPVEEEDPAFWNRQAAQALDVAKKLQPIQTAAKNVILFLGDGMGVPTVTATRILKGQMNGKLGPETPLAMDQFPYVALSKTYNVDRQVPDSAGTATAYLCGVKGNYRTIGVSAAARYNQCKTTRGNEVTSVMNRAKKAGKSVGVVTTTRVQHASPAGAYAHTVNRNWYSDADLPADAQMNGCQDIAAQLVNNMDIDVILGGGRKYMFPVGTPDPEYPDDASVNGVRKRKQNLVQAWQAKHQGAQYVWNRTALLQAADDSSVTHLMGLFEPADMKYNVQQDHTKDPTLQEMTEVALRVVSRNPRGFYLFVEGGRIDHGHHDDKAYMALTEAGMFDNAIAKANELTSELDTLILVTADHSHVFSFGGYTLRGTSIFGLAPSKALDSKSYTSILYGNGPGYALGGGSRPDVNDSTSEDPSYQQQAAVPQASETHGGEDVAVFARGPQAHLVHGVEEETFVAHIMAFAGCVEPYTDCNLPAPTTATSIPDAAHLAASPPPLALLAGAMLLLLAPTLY

Molecular target: T1, ALP (Bos taurus, UniProt P19111)
T1 construct: Alkaline phosphatase from bovine; purchased Sigma-Aldrich; host or cells: bovine intestinal mucosa (tissue-derived)
Test: Dephosphorylated efficacy of P-CyPt towards varying concentrations of ALP (NIR fluorescence)
Type: biochemical

`CC1(C)C(/C=C/C2=C3Oc4cc(OP(=O)(O)O)c(Cl)cc4C=C3CCC2)=[N+](CCCNC(=O)[C@@H](Cc2ccccc2)NC(=O)[C@@H](Cc2ccccc2)NC(=O)CCC(=O)[O][Pt]([NH2])([NH2])([OH])([Cl])[Cl])c2ccccc21` [P-CyPt] was tested, and the “Normalized FL intensity” value (ALP 5 U/L, 0 min, mean of 3 samples) was 0.9797, the “Normalized FL intensity” value (ALP 5 U/L, 0 min, single samples) was 0.9826 and 0.9217 and 1.035 and the “Normalized FL intensity” value (ALP 5 U/L, 2 min, mean of 3 samples) was 1.08. The “Normalized FL intensity” value (ALP 5 U/L, 2 min, single samples) was 1.07 and 1.1, the “Normalized FL intensity” value (ALP 5 U/L, 4 min, mean of 3 samples) was 1.184 and the “Normalized FL intensity” value (ALP 5 U/L, 4 min, single samples) was 1.152 and 1.183 and 1.217. For the same molecule, the “Normalized FL intensity” value (ALP 5 U/L, 6 min, mean of 3 samples) was 1.386, the “Normalized FL intensity” value (ALP 5 U/L, 6 min, single samples) was 1.387 and 1.352 and 1.417 and the “Normalized FL intensity” value (ALP 5 U/L, 8 min, mean of 3 samples) was 1.587. For the same molecule, the “Normalized FL intensity” value (ALP 5 U/L, 8 min, single samples) was 1.483 and 1.6 and 1.678, the “Normalized FL intensity” value (ALP 5 U/L, 16 min, mean of 3 samples) was 1.958 and the “Normalized FL intensity” value (ALP 5 U/L, 16 min, single samples) was 1.9087 and 1.952 and 2.013. The “Normalized FL intensity” value (ALP 5 U/L, 18 min, mean of 3 samples) was 2.062, the “Normalized FL intensity” value (ALP 5 U/L, 18 min, single samples) was 1.9913 and 2.074 and 2.122 and the “Normalized FL intensity” value (ALP 5 U/L, 20 min, mean of 3 samples) was 2.162. For the same molecule, the “Normalized FL intensity” value (ALP 5 U/L, 20 min, single samples) was 2.07 and 2.157 and 2.261, the “Normalized FL intensity” value (ALP 5 U/L, 22 min, mean of 3 samples) was 2.455 and the “Normalized FL intensity” value (ALP 5 U/L, 22 min, single samples) was 2.383 and 2.422 and 2.561. The “Normalized FL intensity” value (ALP 5 U/L, 24 min, mean of 3 samples) was 2.539, the “Normalized FL intensity” value (ALP 5 U/L, 24 min, single samples) was 2.474 and 2.5 and 2.643 and the “Normalized FL intensity” value (ALP 5 U/L, 26 min, mean of 3 samples) was 2.628. The “Normalized FL intensity” value (ALP 5 U/L, 26 min, single samples) was 2.57 and 2.626 and 2.687, the “Normalized FL intensity” value (ALP 5 U/L, 28 min, mean of 3 samples) was 2.6942 and the “Normalized FL intensity” value (ALP 5 U/L, 28 min, single samples) was 2.678 and 2.687 and 2.717. For the same molecule, the “Normalized FL intensity” value (ALP 5 U/L, 30 min, mean of 3 samples) was 2.768, the “Normalized FL intensity” value (ALP 5 U/L, 30 min, single samples) was 2.722 and 2.77E+00 and 2.81E+00 and the “Normalized FL intensity” value (ALP 10 U/L, 0 min, mean of 3 samples) was 0.929. The “Normalized FL intensity” value (ALP 10 U/L, 0 min, single samples) was 0.8957 and 0.9087 and 0.9826, the “Normalized FL intensity” value (ALP 10 U/L, 2 min, mean of 3 samples) was 1.1913 and the “Normalized FL intensity” value (ALP 10 U/L, 2 min, single samples) was 1.17 and 1.196 and 1.2087. For the same molecule, the “Normalized FL intensity” value (ALP 10 U/L, 4 min, mean of 3 samples) was 1.416, the “Normalized FL intensity” value (ALP 10 U/L, 4 min, single samples) was 1.396 and 1.413 and 1.439 and the “Normalized FL intensity” value (ALP 10 U/L, 6 min, mean of 3 samples) was 1.662. For the same molecule, the “Normalized FL intensity” value (ALP 10 U/L, 6 min, single samples) was 1.63 and 1.652 and 1.704, the “Normalized FL intensity” value (ALP 10 U/L, 8 min, mean of 3 samples) was 1.913 and the “Normalized FL intensity” value (ALP 10 U/L, 8 min, single samples) was 1.822 and 1.922 and 1.996. The “Normalized FL intensity” value (ALP 10 U/L, 18 min, mean of 3 samples) was 3.077, the “Normalized FL intensity” value (ALP 10 U/L, 18 min, single samples) was 2.978 and 3.126 and the “Normalized FL intensity” value (ALP 10 U/L, 20 min, mean of 3 samples) was 3.322. The “Normalized FL intensity” value (ALP 10 U/L, 20 min, single samples) was 3.152 and 3.426 and 3.387, the “Normalized FL intensity” value (ALP 10 U/L, 22 min, mean of 3 samples) was 3.57 and the “Normalized FL intensity” value (ALP 10 U/L, 22 min, single samples) was 3.417 and 3.657 and 3.635. The “Normalized FL intensity” value (ALP 10 U/L, 24 min, mean of 3 samples) was 3.865, the “Normalized FL intensity” value (ALP 10 U/L, 24 min, single samples) was 3.726 and 3.904 and 3.965 and the “Normalized FL intensity” value (ALP 10 U/L, 26 min, mean of 3 samples) was 4.146. The “Normalized FL intensity” value (ALP 10 U/L, 26 min, single samples) was 4.065 and 4.13 and 4.243, the “Normalized FL intensity” value (ALP 10 U/L, 28 min, mean of 3 samples) was 4.4 and the “Normalized FL intensity” value (ALP 10 U/L, 28 min, single samples) was 4.326 and 4.3913 and 4.483. The “Normalized FL intensity” value (ALP 10 U/L, 30 min, mean of 3 samples) was 4.643, the “Normalized FL intensity” value (ALP 10 U/L, 30 min, single samples) was 4.543 and 4.648 and 4.739 and the “Normalized FL intensity” value (ALP 20 U/L, 0 min, mean of 3 samples) was 0.9536. The “Normalized FL intensity” value (ALP 20 U/L, 0 min, single samples) was 0.9043 and 0.9304 and 1.026, the “Normalized FL intensity” value (ALP 20 U/L, 2 min, mean of 3 samples) was 1.245 and the “Normalized FL intensity” value (ALP 20 U/L, 2 min, single samples) was 1.222 and 1.235 and 1.278. The “Normalized FL intensity” value (ALP 20 U/L, 4 min, mean of 3 samples) was 1.522, the “Normalized FL intensity” value (ALP 20 U/L, 4 min, single samples) was 1.443 and 1.5087 and 1.613 and the “Normalized FL intensity” value (ALP 20 U/L, 6 min, mean of 3 samples) was 1.871. The “Normalized FL intensity” value (ALP 20 U/L, 6 min, single samples) was 1.783 and 1.835 and 1.996, the “Normalized FL intensity” value (ALP 20 U/L, 8 min, mean of 3 samples) was 2.238 and the “Normalized FL intensity” value (ALP 20 U/L, 8 min, single samples) was 2.139 and 2.226 and 2.348. The “Normalized FL intensity” value (ALP 20 U/L, 18 min, mean of 3 samples) was 4.193, the “Normalized FL intensity” value (ALP 20 U/L, 18 min, single samples) was 4.117 and 4.126 and 4.335 and the “Normalized FL intensity” value (ALP 20 U/L, 20 min, mean of 3 samples) was 4.58. For the same molecule, the “Normalized FL intensity” value (ALP 20 U/L, 20 min, single samples) was 4.487 and 4.526 and 4.726, the “Normalized FL intensity” value (ALP 20 U/L, 22 min, mean of 3 samples) was 4.971 and the “Normalized FL intensity” value (ALP 20 U/L, 22 min, single samples) was 4.87 and 4.917 and 5.126. For the same molecule, the “Normalized FL intensity” value (ALP 20 U/L, 24 min, mean of 3 samples) was 5.368, the “Normalized FL intensity” value (ALP 20 U/L, 24 min, single samples) was 5.222 and 5.2913 and 5.5913 and the “Normalized FL intensity” value (ALP 20 U/L, 26 min, mean of 3 samples) was 5.7. The “Normalized FL intensity” value (ALP 20 U/L, 26 min, single samples) was 5.613 and 5.722 and 5.765, the “Normalized FL intensity” value (ALP 20 U/L, 28 min, mean of 3 samples) was 5.87 and the “Normalized FL intensity” value (ALP 20 U/L, 28 min, single samples) was 5.657 and 5.857 and 6.096. The “Normalized FL intensity” value (ALP 20 U/L, 30 min, mean of 3 samples) was 6.1913, the “Normalized FL intensity” value (ALP 20 U/L, 30 min, single samples) was 6.039 and 6.078 and 6.457 and the “Normalized FL intensity” value (ALP 50 U/L, 0 min, mean of 3 samples) was 0.942. For the same molecule, the “Normalized FL intensity” value (ALP 50 U/L, 0 min, single samples) was 0.9174 and 0.9652 and 0.9435, the “Normalized FL intensity” value (ALP 50 U/L, 2 min, mean of 3 samples) was 1.416 and the “Normalized FL intensity” value (ALP 50 U/L, 2 min, single samples) was 1.422 and 1.426 and 1.4. The “Normalized FL intensity” value (ALP 50 U/L, 4 min, mean of 3 samples) was 1.828, the “Normalized FL intensity” value (ALP 50 U/L, 4 min, single samples) was 1.783 and 1.865 and 1.835 and the “Normalized FL intensity” value (ALP 50 U/L, 6 min, mean of 3 samples) was 2.274. For the same molecule, the “Normalized FL intensity” value (ALP 50 U/L, 6 min, single samples) was 2.204 and 2.2913 and 2.326, the “Normalized FL intensity” value (ALP 50 U/L, 8 min, mean of 3 samples) was 2.743 and the “Normalized FL intensity” value (ALP 50 U/L, 8 min, single samples) was 2.687 and 2.713 and 2.83. For the same molecule, the “Normalized FL intensity” value (ALP 50 U/L, 18 min, mean of 3 samples) was 5.301, the “Normalized FL intensity” value (ALP 50 U/L, 18 min, single samples) was 4.857 and 5.3087 and 5.739 and the “Normalized FL intensity” value (ALP 50 U/L, 20 min, mean of 3 samples) was 5.461.
